Experimental data: article PMC11652653, “SON-1010: an albumin-binding IL-12 fusion protein that improves cytokine half-life, targets tumors, and enhances therapeutic efficacy” (Frontiers in Immunology, 2024)
Results are given in words; binding and its absence hold for the method and conditions named.

By UniProt entry, the sequences of proteins in these tests, tags left out. Residues count along the entry.
UniProt P02768, residues 25-609: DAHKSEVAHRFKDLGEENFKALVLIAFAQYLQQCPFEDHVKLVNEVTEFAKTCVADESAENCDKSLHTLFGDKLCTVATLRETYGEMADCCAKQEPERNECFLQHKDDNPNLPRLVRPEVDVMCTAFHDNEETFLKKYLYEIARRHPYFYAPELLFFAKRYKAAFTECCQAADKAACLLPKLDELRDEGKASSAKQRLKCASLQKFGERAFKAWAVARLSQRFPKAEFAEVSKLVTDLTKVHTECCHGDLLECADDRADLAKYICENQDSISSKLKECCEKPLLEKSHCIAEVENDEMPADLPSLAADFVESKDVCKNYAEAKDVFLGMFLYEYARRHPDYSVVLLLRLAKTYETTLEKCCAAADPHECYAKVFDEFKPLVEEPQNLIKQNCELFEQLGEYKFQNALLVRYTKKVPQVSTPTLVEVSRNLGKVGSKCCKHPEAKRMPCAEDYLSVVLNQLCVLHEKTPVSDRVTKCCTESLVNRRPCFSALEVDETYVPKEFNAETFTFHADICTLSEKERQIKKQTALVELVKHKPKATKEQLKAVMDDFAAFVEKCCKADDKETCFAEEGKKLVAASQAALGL

Target: human serum albumin (human) (UniProt P02768)
Experiment: SPR; HSA bound to the chip, SON-1010 added, then FcRn or SPARC together with SON-1010 (ternary complex); pH 7.2; both purified

binding: no binding (condition: at pH 7.2)
B1: secreted protein acidic and rich in cysteine (natural protein, UniProt P09486 18-303, looked up)
chain: APQQEALPDETEVVEETVAEVTEVSVGANPVQVEVGEFDDGAEETEEEVVAENPCQNHHCKHGKVCELDENNTPMCVCQDPTSCPAPIGEFEKVCSNDNKTFDSSCHFFATKCTLEGTKKGHKLHLDYIGPCKYIPPCLDSELTEFPLRMRDWLKNVLVTLYERDEDNNLLTEKQKLRVKKIHENEKRLEAGDHPVELLARDFEKNYNMYIFPVHWQFGQLDQHPIDGYLSHTELAPLRAPLIPMEHCTTRFFETCDLDNDKYIALDEWAGCFGIKQKDIDKDLVI
notes: SPARC (secreted protein acidic and rich in cysteine); also called SPARC
